Experimental data published in PubChem BioAssay AID588590 (National Center for Advancing Translational Sciences (NCATS), 2011).
In all, about 390,000 compounds went through this assay and about 4,000 (1%) were called active. This list was built around the results that the source calls inconclusive (neither active nor inactive); the mix of calls is not that of the screen. Calls follow the shape of the dose curve; as a rule, active = well fitted inhibition curve with a large enough effect; inconclusive = small, poorly fitted or top-dose-only effect, or another doubt; inactive = no such curve, though single readings can be large or run the other way. Potencies of inconclusive entries are doubtful fits and often do not repeat.
Potency is read from the fitted curve at half-maximal effect.

Amino acid sequences for entries named in this document (tags omitted). A change or cut given only in a name is not applied to a line headed by its entry.
UniProt Q9UNA4: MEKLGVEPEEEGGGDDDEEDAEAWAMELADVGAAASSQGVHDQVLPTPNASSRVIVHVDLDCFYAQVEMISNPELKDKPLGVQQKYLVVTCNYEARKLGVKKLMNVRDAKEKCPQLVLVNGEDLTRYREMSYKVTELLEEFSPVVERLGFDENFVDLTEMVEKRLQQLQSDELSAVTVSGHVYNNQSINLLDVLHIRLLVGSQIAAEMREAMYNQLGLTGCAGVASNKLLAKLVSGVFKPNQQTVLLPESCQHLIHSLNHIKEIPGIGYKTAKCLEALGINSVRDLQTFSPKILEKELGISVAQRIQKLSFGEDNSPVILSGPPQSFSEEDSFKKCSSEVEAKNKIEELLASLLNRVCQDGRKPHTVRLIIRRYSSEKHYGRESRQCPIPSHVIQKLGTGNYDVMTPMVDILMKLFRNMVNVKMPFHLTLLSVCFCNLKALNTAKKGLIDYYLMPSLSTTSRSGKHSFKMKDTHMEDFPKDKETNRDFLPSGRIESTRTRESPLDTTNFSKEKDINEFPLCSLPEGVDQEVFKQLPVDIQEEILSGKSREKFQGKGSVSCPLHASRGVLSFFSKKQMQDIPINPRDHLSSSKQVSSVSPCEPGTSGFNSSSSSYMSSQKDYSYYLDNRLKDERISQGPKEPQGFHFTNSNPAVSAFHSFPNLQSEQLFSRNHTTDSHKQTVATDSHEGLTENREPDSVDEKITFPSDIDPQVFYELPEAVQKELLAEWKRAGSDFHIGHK

What follows are compounds tested against DNA polymerase iota (Homo sapiens) (UniProt Q9UNA4) (assay: qHTS for Inhibitors of Polymerase Iota). Conditions: Pol iota fluorescent replication assay, 10 min; series mostly up to 115 µM; activity, negative = inhibition: at the top concentration.
In short: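 Fluorescent replication assay read twice, at 0 min and 10 min after adding 50 nM (final) substrate. Enzyme (10 nM) and compounds were first incubated 15 min at room temperature; enzyme-free buffer wells were negative controls.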
With `O=[N+]([O-])c1ccc(O)c(/C=N/Nc2nn[nH]n2)c1` the Potency was inconclusive: 17.8 µM [inhibitor, partial curve, poor fit].
In the case of `COc1ccccc1C(CC(=O)Nc1nccs1)c1ccco1` (stereo not given), the Potency was inconclusive: 20 µM [inhibitor, partial curve, poor fit].
In the case of `CCOC(=O)Nc1ccc2c(CN3CCN(S(=O)(=O)c4ccccc4F)CC3)cc(=O)oc2c1`, the Potency was inconclusive: 89.1 µM [inhibitor, partial curve].
For `Cc1ccc(C(=O)NCCc2nnc3ccc(NCc4ccc5c(c4)OCO5)nn23)cc1`, the Potency was inconclusive: 39.8 µM [inhibitor, single point].
In the case of `O=C(CCO)c1ccc(O)cc1`, the Potency was active: 5.01 µM.
In the case of `COc1cc(Cl)cc(C(c2c(C(=O)O)[nH]c3ccccc23)c2c(C(=O)O)[nH]c3ccccc23)c1O`, the Potency was inconclusive: 50.1 µM [inhibitor, single point].
In the case of `Cn1c(C(=O)NN)cc2cc(OCc3ccccc3)ccc21`, the Potency was inconclusive: 89.1 µM [inhibitor, partial curve, poor fit].
`CC(C)COC(=O)C(C)Nc1n[nH]c(=S)[nH]c1=O` (stereo not given) was tested, and the Potency was inconclusive: 79.4 µM [inhibitor, partial curve, poor fit].
For `CC(NC(=O)C(=O)Nc1c2c(nn1-c1ccc(F)cc1)CSC2)c1ccccc1` (stereo not given), the Potency was inconclusive: 89.1 µM [inhibitor, single point].
For `CNC(=S)N(CCc1cccc(C)c1)Cc1cc2cc(OC)c(OC)cc2[nH]c1=O`, the Potency was inconclusive: 70.8 µM [inhibitor, single point].
`O=C(N/N=C/c1ccc(Br)o1)c1cc([N+](=O)[O-])cc([N+](=O)[O-])c1` was tested, and the Potency was inconclusive: 79.4 µM [inhibitor, partial curve, poor fit].
For `Cn1nnnc1Sc1ncnc2scc(-c3cccc(C(F)(F)F)c3)c12`, the Potency was inconclusive: 12.6 µM [inhibitor, partial curve].
For `CC1(OC(=O)CCc2ccccc2)C(=O)C=C2C=C(c3ccc(C#N)cc3)N(CCc3c[nH]c4ccccc34)C=C2C1=O` (stereo not given), the Potency was inconclusive: 14.1 µM [inhibitor, single point].
With `Nc1nc(-c2ccco2)c(-c2ccco2)s1` the Potency was inconclusive: 15.8 µM [inhibitor, full curve].
For `COc1ccc(OC)c(C(c2c(C)[nH][nH]c2=O)c2c(C)[nH][nH]c2=O)c1`, the Potency was active: 28.2 µM.
`O=c1c2cnn(-c3ccccc3)c2nc(-c2cccs2)n1-c1ccc(Cl)cc1` was tested, and the Potency was inconclusive: 17.8 µM [inhibitor, partial curve].
In the case of `O=C(COC(=O)CC1Sc2ccccc2NC1=O)NCc1ccccc1` (stereo not given), the Potency was inconclusive: 39.8 µM [inhibitor, single point].
`CCC(Sc1nc2ccncc2[nH]1)C(=O)Nc1ccc(C)c(Cl)c1` (stereo not given) was tested, and the “activity, negative = inhibition” value was inactive: -11.7%.
`O=c1c(-c2c(O)cc(O)c3c2O[C@H](c2ccc(O)cc2)CC3)c(-c2ccc(O)cc2)oc2cc(O)cc(O)c12` was tested, and the Potency was inconclusive: 39.8 µM [inhibitor, partial curve].
For `COC(=O)c1nnn(CC(=O)Nc2ccc(Br)c(C)c2)c1N`, the “activity, negative = inhibition” value was inactive: 3.22%.
In the case of `Cc1cccc(-n2nnnc2S(C)(=O)=O)c1`, the Potency was inconclusive: 25.1 µM [inhibitor, partial curve, poor fit].
In the case of `Cc1cc(O)c(C(C)C)cc1NC(=O)Nc1ccc([N+](=O)[O-])cc1`, the Potency was inconclusive: 89.1 µM [inhibitor, partial curve, poor fit].
For `COc1cccc(CNC(=O)CCC(=O)N2Cc3cccc(OC)c3Oc3ncccc32)c1OC`, the Potency was inconclusive: 89.1 µM [inhibitor, partial curve, poor fit].
In the case of `Cc1ccc(OCc2nc3ccccc3n2Cc2ccccc2Cl)cc1`, the “activity, negative = inhibition” value was inactive: -4.35%.
In the case of `Cc1c(NC(=O)c2ccccc2F)cccc1-c1nc2cccnc2s1`, the Potency was inconclusive: 89.1 µM [inhibitor, single point].
In the case of `CCOc1ccc(N=C2NC(=O)S/C2=C\c2ccc(OC)cc2)cc1`, the Potency was inconclusive: 11.2 µM [inhibitor, partial curve, poor fit].
`COC(=O)Cn1c2c(c3cc(C)ccc31)CCCC2NC(C)c1ccccc1` (stereo not given) was tested, and the Potency was inconclusive: 0.316 µM [inhibitor, full curve, poor fit].
In the case of `Nc1ccccc1N=c1ssnc1Cl`, the Potency was inconclusive: 22.4 µM [inhibitor, partial curve].
With `CC(=O)c1cnc2c(C(=O)O)cnn2c1C` the “activity, negative = inhibition” value was inactive: 0.921%.
`COc1cccc(CNC(=O)c2cc(S(=O)(=O)N3CCCC3)cn2C)c1` was tested, and the Potency was inconclusive: 79.4 µM [inhibitor, single point].
For `Cc1ccc(S(=O)(=O)N/N=C2/CC(c3ccccc3)Oc3ccccc32)cc1[N+](=O)[O-]` (stereo not given), the Potency was inconclusive: 14.1 µM [inhibitor, full curve, poor fit].
With `COc1ccccc1CNC(=O)COC(=O)c1cnccn1` the Potency was inconclusive: 0.891 µM [inhibitor, partial curve, poor fit].
For `O=c1ccc(C(F)(F)F)cn1Cc1cc(=O)n2cc(Br)ccc2n1`, the Potency was inconclusive: 63.1 µM [inhibitor, single point].
`CCC(=O)Nc1nnc(S(=O)(=O)N2CCc3ccccc32)s1` was tested, and the Potency was inconclusive: 8.91 µM [inhibitor, full curve, poor fit].
In the case of `CN(C(=O)c1ccc(NC(=O)Cc2cccc(NC(=O)C3CCN(C(=O)c4ccccc4)CC3)c2)cc1)C1CC1`, the Potency was inconclusive: 28.2 µM [inhibitor, partial curve, poor fit].
`CCCCCCn1c(SCC#N)nc2ccccc2c1=O` was tested, and the “activity, negative = inhibition” value was inactive: 12.4%.
For `O=C(O)CSc1c(-c2cccs2)[nH]c2ccccc12`, the Potency was inconclusive: 17.8 µM [inhibitor, full curve].
With `Cc1ccccc1CN1CCN(CC(=O)NCc2ccccc2Cl)C1=O` the “activity, negative = inhibition” value was inactive: 19.6%.
In the case of `CC(=O)c1c(C)[nH]c(C(=O)Nc2cccc(S(=O)(=O)N(C)c3ccccc3)c2)c1C`, the Potency was inconclusive: 50.1 µM [inhibitor, partial curve, poor fit].
With `O=C(NC(=S)N(Cc1ccccc1)c1ccccn1)C1CC1` the Potency was inconclusive: 15.8 µM [inhibitor, partial curve, poor fit].
